# These are yes or no findings as the source states them, for the method shown. Binding calls can cover weak binding; strength is not graded here. Tags and fused reporters may be left off the sequences shown.
# Molecular target: T1, TorD with N-terminal His-tag (E. coli) (UniProt P36662)
# T1 sequence: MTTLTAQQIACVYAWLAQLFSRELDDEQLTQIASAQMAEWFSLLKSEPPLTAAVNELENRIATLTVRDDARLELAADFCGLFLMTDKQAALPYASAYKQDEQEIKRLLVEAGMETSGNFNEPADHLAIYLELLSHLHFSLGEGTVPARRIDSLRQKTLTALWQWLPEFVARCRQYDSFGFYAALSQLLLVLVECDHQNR
# Assay: SPR; qualitative; His-tagged REMP held on a Ni-NTA chip to 1000 RU, pre-protein injected (100 or 200 nM shown; 20 to 400 nM for the chimeras), 60 s, 50 µl/min, 25°C; 10 mM HEPES, 150 mM NaCl, 50 µM EDTA, 0.005% P20, pH 7.4; both purified
row,Substance,binding
1,DDT-GFP (ssDmsA-GFP with the C-region of ssTorA) (E. coli) (domain or fragment),no binding (tested: 20 to 400 nM)
2,DTD-GFP (ssDmsA-GFP with the H-region of ssTorA) (E. coli) (domain or fragment),no binding (tested: 20 to 400 nM)
3,DTT-GFP (ssTorA-GFP with the N-region of ssDmsA) (E. coli) (domain or fragment),binds
4,TDD-GFP (ssDmsA-GFP with the N-region of ssTorA) (E. coli) (domain or fragment),no binding (tested: 20 to 400 nM)
5,TDT-GFP (ssTorA-GFP with the H-region of ssDmsA) (E. coli) (domain or fragment),binds weakly
6,TTD-GFP (ssTorA-GFP with the C-region of ssDmsA) (E. coli) (domain or fragment),binds weakly

# Source: paper PMC3316669
